Publication doi:10.1101/2023.05.22.23289895
No constants are given. Whether binding was seen depends on the method and setting. In cells and extracts the contact can be indirect. These calls come from enrichment with a bait or labelling near it, and not all partners need be listed. Blank lines part the entries; values can stand above or below the molecule they belong to.

Chains of the proteins cited; added tags and fusions are not shown.
UniProt Q15911: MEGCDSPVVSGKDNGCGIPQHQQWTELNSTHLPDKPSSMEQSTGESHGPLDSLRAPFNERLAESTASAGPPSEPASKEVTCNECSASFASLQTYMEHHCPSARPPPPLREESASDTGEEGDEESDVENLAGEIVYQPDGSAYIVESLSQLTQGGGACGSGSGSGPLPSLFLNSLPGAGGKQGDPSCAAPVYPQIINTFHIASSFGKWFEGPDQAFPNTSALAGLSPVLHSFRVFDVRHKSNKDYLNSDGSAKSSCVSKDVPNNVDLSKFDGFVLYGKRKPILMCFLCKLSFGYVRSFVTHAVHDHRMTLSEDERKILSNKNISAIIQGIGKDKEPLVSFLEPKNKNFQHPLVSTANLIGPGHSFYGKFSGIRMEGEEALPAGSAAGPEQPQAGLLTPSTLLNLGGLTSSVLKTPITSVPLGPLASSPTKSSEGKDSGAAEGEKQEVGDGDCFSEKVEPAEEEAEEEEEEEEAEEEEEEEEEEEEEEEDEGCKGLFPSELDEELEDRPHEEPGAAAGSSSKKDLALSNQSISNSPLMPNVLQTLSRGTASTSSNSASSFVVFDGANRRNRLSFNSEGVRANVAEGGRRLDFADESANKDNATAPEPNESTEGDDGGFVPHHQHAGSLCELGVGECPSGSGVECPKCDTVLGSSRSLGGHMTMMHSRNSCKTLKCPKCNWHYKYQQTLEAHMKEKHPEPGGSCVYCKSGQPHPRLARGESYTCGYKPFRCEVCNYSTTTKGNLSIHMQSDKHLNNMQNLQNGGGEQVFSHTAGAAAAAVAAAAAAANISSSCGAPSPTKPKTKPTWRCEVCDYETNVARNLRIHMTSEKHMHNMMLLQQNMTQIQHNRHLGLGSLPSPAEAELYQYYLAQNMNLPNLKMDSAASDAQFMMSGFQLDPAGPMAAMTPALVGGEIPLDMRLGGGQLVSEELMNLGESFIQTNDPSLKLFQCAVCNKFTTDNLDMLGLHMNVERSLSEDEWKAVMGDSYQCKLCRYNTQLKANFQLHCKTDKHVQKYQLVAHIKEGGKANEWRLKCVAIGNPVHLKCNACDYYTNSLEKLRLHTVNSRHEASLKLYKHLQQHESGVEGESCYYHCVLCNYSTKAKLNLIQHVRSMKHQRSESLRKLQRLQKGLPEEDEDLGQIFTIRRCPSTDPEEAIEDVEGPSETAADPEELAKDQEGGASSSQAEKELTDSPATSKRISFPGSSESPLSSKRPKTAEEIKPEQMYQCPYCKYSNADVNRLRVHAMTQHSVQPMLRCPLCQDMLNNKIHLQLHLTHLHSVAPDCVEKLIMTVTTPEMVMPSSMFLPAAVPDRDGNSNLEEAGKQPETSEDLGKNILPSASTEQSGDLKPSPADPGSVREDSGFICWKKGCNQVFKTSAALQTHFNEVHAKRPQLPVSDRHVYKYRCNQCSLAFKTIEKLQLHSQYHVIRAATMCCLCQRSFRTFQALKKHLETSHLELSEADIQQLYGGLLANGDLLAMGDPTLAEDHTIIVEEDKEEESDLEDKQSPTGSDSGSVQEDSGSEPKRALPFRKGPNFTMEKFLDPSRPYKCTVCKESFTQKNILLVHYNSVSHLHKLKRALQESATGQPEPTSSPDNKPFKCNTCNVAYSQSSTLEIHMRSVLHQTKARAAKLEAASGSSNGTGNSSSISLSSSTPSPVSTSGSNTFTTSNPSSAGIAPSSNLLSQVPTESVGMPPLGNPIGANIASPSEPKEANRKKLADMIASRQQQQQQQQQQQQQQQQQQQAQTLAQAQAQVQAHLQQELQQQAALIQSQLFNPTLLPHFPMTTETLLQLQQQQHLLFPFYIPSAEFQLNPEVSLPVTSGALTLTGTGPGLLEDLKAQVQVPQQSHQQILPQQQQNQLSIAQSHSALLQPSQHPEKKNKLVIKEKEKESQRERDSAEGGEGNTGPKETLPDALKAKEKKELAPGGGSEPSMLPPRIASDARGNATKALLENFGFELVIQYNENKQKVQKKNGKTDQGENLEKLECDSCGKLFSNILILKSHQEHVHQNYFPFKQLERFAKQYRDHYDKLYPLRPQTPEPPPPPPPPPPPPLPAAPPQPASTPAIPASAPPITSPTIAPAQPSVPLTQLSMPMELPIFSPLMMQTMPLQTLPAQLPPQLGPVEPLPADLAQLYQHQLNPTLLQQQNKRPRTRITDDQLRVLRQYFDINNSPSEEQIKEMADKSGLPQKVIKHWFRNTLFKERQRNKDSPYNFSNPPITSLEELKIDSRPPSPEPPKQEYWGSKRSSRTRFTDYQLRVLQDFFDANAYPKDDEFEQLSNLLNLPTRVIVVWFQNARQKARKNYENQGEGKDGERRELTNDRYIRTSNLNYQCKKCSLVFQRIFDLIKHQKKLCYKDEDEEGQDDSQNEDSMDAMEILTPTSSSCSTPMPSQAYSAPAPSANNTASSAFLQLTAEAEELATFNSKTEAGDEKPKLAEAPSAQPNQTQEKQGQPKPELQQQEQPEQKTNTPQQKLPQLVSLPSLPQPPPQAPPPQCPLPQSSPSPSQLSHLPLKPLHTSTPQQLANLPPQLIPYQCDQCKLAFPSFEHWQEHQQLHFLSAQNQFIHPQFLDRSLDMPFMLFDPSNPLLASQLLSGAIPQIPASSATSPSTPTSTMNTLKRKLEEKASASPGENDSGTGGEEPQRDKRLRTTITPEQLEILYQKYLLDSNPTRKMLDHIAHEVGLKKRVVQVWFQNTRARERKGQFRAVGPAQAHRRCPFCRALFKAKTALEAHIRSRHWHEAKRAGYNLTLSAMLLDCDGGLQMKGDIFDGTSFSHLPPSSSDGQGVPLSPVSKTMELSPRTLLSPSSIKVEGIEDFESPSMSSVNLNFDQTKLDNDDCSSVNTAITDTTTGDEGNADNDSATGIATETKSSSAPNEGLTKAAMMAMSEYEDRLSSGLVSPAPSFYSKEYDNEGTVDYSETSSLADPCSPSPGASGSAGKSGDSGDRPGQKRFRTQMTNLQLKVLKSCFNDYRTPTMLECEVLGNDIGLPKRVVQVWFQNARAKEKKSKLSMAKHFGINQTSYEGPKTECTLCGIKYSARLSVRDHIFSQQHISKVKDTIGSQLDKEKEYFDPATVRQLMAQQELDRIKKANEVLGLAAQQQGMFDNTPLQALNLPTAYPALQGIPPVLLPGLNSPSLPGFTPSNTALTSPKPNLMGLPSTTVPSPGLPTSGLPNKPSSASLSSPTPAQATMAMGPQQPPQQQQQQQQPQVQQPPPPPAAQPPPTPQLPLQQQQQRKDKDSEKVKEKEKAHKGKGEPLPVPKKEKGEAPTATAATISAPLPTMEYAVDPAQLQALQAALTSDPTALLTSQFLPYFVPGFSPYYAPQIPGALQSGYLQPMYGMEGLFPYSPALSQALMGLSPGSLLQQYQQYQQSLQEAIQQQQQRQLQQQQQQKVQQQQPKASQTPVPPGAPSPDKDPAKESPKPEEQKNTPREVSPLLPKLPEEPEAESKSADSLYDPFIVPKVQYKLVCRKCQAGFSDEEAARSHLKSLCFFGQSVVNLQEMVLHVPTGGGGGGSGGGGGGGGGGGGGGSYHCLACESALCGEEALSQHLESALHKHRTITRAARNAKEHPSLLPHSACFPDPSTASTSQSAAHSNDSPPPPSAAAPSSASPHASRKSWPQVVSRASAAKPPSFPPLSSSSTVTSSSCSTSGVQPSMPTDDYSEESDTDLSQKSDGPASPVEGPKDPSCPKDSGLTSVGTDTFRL
UniProt Q12824: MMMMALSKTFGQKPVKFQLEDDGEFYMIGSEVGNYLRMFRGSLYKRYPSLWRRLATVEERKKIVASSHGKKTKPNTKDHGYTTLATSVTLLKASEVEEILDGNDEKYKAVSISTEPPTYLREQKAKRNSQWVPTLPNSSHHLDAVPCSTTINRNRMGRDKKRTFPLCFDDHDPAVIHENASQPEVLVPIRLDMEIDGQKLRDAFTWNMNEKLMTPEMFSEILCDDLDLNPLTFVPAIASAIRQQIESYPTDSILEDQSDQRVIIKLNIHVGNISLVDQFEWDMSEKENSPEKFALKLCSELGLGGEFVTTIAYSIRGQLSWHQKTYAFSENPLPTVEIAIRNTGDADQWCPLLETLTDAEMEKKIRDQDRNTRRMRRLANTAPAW

Molecular target: Zinc Finger Homeobox 3 (ZFHX3), endogenous (human (endogenous in SH-SY5Y and NSCs)) (UniProt Q15911)
Assay: affinity purification with mass spectrometry

- binding: binds
Molecule: SMARCB1 (subunit of the BAF complex), endogenous (from UniProt Q12824 1-385)

- binding: binds
B1: CPSF2 (subunit of CP complex), endogenous (protein, UniProt Q9P2I0 1-782)
chain: MTSIIKLTTLSGVQEESALCYLLQVDEFRFLLDCGWDEHFSMDIIDSLRKHVHQIDAVLLSHPDPLHLGALPYAVGKLGLNCAIYATIPVYKMGQMFMYDLYQSRHNTEDFTLFTLDDVDAAFDKIQQLKFSQIVNLKGKGHGLSITPLPAGHMIGGTIWKIVKDGEEEIVYAVDFNHKREIHLNGCSLEMLSRPSLLITDSFNATYVQPRRKQRDEQLLTNVLETLRGDGNVLIAVDTAGRVLELAQLLDQIWRTKDAGLGVYSLALLNNVSYNVVEFSKSQVEWMSDKLMRCFEDKRNNPFQFRHLSLCHGLSDLARVPSPKVVLASQPDLECGFSRDLFIQWCQDPKNSIILTYRTTPGTLARFLIDNPSEKITEIELRKRVKLEGKELEEYLEKEKLKKEAAKKLEQSKEADIDSSDESDIEEDIDQPSAHKTKHDLMMKGEGSRKGSFFKQAKKSYPMFPAPEERIKWDEYGEIIKPEDFLVPELQATEEEKSKLESGLTNGDEPMDQDLSDVPTKCISTTESIEIKARVTYIDYEGRSDGDSIKKIINQMKPRQLIIVHGPPEASQDLAECCRAFGGKDIKVYMPKLHETVDATSETHIYQVRLKDSLVSSLQFCKAKDAELAWIDGVLDMRVSKVDTGVILEEGELKDDGEDSEMQVEAPSDSSVIAQQKAMKSLFGDDEKETGEESEIIPTLEPLPPHEVPGHQSVFMNEPRLSDFKQVLLREGIQAEFVGGVLVCNNQVAVRRTETGRIGLEGCLCQDFYRIRDLLYEQYAIV
